{
  "source": "PubChem BioAssay AID1347423",
  "about": "(Functional Genomics Laboratory (NCATS/FGL), 2020)",
  "note": "Among all 52,000 sequences or so, about 210 (0.4%) were called active.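 Rule for the calls: active = gene whose silencing raises cell survival under the drug, median off-target-corrected z-score across its silencing RNAs 2 or more; inactive = the rest.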 The list shows a part of the results.",
  "data": [
    {"assay": "Resistance to Poly (ADP-Ribose) Polymerase inhibitor: Gene Identification via Genome-wide siRNA Screen", "conditions": "mouse BRCA2 R2336H ES cells, olaparib, CellTiter-Glo viability; stronger effect = higher value", "summary_of_the_method": "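Mouse BRCA2 R2336H ES cells were reverse-transfected with siRNA (20 nM final), treated at 48 h with 500 nM olaparib, and read by CellTiter-Glo after 72 h. Scores: MAD-based z per siRNA, median per gene, seed off-target correction.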", "values": [
      {"sequence": "GCCUUACUACUACAACAACTT against 2610317D23Rik", "z-score": "inactive: 1.72"},
      {"sequence": "GGUUAGACCAAUAAAAAGCTT against Pfdn1", "z-score": "inactive: 0.217"},
      {"sequence": "GGUCUUUCAAGUUGCAUACTT against Lama1", "z-score": "inactive: -0.316"},
      {"sequence": "CCGUACAGAUUGAGAAUACTT against 0910001K20Rik", "z-score": "inactive: 0.64"},
      {"sequence": "GGCAAAUGGAAACAGCCAUTT against Serpina1d", "z-score": "inactive: 0.00508"},
      {"sequence": "CGUUGUUCUUAUCCUGAGGTT against Olfr448", "z-score": "inactive: -1.04"},
      {"sequence": "GGCAUUUUCGUAUAGUUACTT against C76566", "z-score": "inactive: -0.862"},
      {"sequence": "GGUUCUUUUUGGUUUAGGUTT against Tm9sf4", "z-score": "inactive: 1.27"},
      {"sequence": "GGAAAUGCAGUUGUGAAUGTT against Rab4a", "z-score": "inactive: 1.71"},
      {"sequence": "GGGUCCAAUAAACAUGUCUTT against B3galt4", "z-score": "inactive: 2.55"},
      {"sequence": "CCUGUGCUCUUAUUAUCAATT against Rpp14", "z-score": "inactive: -0.156"},
      {"sequence": "CCGCCAUGACAUUAUGCUGTT against Klk15", "z-score": "inactive: 1.14"},
      {"sequence": "GGAUAAUUGAUCAUAGAGGTT against 1810045K17Rik", "z-score": "inactive: 0.0152"},
      {"sequence": "GGAGAAAAUCAAACCAGAUTT against 2810457M08Rik", "z-score": "inactive: 0.415"},
      {"sequence": "GGCCUAUCAGAUAAAGAAGTT against BC026744", "z-score": "inactive: 1.26"},
      {"sequence": "CGACCCAAUCGAUGUUUGUTT against Pyp", "z-score": "inactive: -0.399"},
      {"sequence": "GGUAUUCAAGGUAAGAAAGTT against Ercc5", "z-score": "inactive: -0.34"},
      {"sequence": "GGGCUUUCUCCAAUCGUAATT against B930018B01", "z-score": "inactive: -0.673"},
      {"sequence": "GCAAGUUUCACAGAAUGACTT against Loxl4", "z-score": "inactive: 2.1"},
      {"sequence": "CCUACAGAGACUAUUCACUTT against Fiz1", "z-score": "inactive: -0.0405"},
      {"sequence": "CCGGCUAAACAUUAUUCAUTT against Fpgs", "z-score": "inactive: 0.213"},
      {"sequence": "CCUCAUGUCUGGCAUCUUGTT against Egr4", "z-score": "inactive: 0.544"},
      {"sequence": "GCUCAGUAAUCUGAGGCCATT against Lox", "z-score": "inactive: -1.32"},
      {"sequence": "GGCUGAGUUACGGUUAAAGTT against Ndufb5", "z-score": "inactive: -0.523"},
      {"sequence": "GGUAGACUCUAGCUUCCUCTT against Admr", "z-score": "inactive: 2.67"},
      {"sequence": "CCUCAGUGGUAUAGAGGUATT against Gpr84", "z-score": "inactive: -0.792"},
      {"sequence": "GGUUUCUCGAGAAGUUACCTT against Nab1", "z-score": "inactive: -0.1"},
      {"sequence": "GGCAUCAUAAUGGCAUCGGTT against Aoc2", "z-score": "inactive: -0.247"},
      {"sequence": "GGCGGUUAGACAUUAUGGATT against MGC41689", "z-score": "inactive: 0.521"}
    ]}
  ]
}
